In paper PMC4284802, “The tumour suppressor DLC2 ensures mitotic fidelity by coordinating spindle positioning and cell–cell adhesion” (Nature Communications, 2014):
Results are given in words; binding and its absence hold for the method and conditions named. For part of these data: In cells and extracts the contact can be indirect. Some results given as binding are weak or reduced against the parent protein; the word gives no strength. For part of these data: Tags and fused reporters may be left off the sequences shown.

T1: DLC2 (Deleted in Liver Cancer 2; STARD13) (human (endogenous in HCE)) (UniProt Q9Y3M8)
T1 sequence: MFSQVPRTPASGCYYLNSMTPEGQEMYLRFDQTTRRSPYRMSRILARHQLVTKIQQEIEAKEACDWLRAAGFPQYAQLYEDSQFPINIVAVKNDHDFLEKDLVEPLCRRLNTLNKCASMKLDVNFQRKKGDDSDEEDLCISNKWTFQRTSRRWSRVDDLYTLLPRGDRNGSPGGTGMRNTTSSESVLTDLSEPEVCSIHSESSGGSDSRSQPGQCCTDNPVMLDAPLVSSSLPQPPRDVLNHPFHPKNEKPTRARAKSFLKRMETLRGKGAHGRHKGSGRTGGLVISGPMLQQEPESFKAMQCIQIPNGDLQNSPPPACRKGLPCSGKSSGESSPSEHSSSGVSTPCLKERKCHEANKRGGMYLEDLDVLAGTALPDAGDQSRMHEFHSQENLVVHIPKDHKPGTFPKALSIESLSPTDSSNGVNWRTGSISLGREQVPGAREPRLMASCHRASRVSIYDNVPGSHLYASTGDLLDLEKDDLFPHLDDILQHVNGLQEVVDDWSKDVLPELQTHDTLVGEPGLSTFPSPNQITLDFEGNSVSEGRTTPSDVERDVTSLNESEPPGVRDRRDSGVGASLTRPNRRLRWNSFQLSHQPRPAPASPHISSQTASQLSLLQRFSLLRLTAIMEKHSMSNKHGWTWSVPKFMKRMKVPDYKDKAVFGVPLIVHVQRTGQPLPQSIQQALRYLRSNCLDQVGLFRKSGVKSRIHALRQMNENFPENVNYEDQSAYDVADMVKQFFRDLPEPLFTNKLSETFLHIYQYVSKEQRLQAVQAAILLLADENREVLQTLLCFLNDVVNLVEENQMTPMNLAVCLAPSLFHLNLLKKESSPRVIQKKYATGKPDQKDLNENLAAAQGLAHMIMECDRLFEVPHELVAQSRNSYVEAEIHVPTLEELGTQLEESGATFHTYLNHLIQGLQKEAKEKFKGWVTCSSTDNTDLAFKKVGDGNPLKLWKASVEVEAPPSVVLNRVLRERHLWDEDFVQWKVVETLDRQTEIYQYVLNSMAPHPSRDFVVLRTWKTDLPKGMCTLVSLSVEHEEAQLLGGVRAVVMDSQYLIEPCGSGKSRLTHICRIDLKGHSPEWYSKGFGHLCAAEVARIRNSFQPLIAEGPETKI

T2: DLC2 SAM domain together with the serine-rich domain (residues 1-600) fused to GST (human) (UniProt Q9Y3M8)
T2 sequence: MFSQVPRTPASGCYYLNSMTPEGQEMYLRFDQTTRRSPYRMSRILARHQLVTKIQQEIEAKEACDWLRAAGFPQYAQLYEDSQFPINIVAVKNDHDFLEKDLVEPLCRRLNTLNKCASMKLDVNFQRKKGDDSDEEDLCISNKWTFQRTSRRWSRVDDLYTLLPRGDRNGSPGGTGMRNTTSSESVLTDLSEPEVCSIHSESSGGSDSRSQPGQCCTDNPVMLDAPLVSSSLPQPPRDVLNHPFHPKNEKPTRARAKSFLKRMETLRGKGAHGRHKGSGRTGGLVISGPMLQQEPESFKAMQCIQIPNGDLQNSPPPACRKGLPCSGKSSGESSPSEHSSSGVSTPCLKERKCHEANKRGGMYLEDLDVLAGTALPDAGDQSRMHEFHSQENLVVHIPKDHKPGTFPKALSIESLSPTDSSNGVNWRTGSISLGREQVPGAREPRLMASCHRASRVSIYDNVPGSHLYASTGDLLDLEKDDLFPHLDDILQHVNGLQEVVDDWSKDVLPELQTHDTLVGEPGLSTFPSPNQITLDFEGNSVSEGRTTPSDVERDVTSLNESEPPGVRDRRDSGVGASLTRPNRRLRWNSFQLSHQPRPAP

T3: DLC2 SAM domain (residues 1-130) fused to GST (human) (UniProt Q9Y3M8)
T3 sequence: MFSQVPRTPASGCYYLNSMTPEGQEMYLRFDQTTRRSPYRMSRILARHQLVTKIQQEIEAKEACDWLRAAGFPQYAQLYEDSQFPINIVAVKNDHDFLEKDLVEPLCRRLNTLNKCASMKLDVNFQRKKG

B1: p120 catenin (protein, UniProt O60716 1-968)
chain: MDDSEVESTASILASVKEQEAQFEKLTRALEEERRHVSAQLERVRVSPQDANPLMANGTLTRRHQNGRFVGDADLERQKFSDLKLNGPQDHSHLLYSTIPRMQEPGQIVETYTEEDPEGAMSVVSVETSDDGTTRRTETTVKKVVKTVTTRTVQPVAMGPDGLPVDASSVSNNYIQTLGRDFRKNGNGGPGPYVGQAGTATLPRNFHYPPDGYSRHYEDGYPGGSDNYGSLSRVTRIEERYRPSMEGYRAPSRQDVYGPQPQVRVGGSSVDLHRFHPEPYGLEDDQRSMGYDDLDYGMMSDYGTARRTGTPSDPRRRLRSYEDMIGEEVPSDQYYWAPLAQHERGSLASLDSLRKGGPPPPNWRQPELPEVIAMLGFRLDAVKSNAAAYLQHLCYRNDKVKTDVRKLKGIPVLVGLLDHPKKEVHLGACGALKNISFGRDQDNKIAIKNCDGVPALVRLLRKARDMDLTEVITGTLWNLSSHDSIKMEIVDHALHALTDEVIIPHSGWEREPNEDCKPRHIEWESVLTNTAGCLRNVSSERSEARRKLRECDGLVDALIFIVQAEIGQKDSDSKLVENCVCLLRNLSYQVHREIPQAERYQEAAPNVANNTGPHAASCFGAKKGKDEWFSRGKKPIEDPANDTVDFPKRTSPARGYELLFQPEVVRIYISLLKESKTPAILEASAGAIQNLCAGRWTYGRYIRSALRQEKALSAIADLLTNEHERVVKAASGALRNLAVDARNKELIGKHAIPNLVKNLPGGQQNSSWNFSEDTVISILNTINEVIAENLEAAKKLRETQGIEKLVLINKSGNRSEKEVRAAALVLQTIWGYKELRKPLEKEGWKKSDFQVNLNNASRSQSSHSYDDSTLPLIDRNQKSDKKPDREEIQMSNMGSNTKSLDNNYSTPNERGDHNRTLDRSGDLGDMEPLKGTTPLMQDEGQESLEEELDVLVLDDEGGQVSYPSMQKI
B2: DLC2 (Deleted in Liver Cancer 2; STARD13) (protein, UniProt Q9Y3M8 1-1113)
chain: T1 sequence
B3: His-tagged recombinant protein containing the Kif1B kinesin motor domain (residues 1-366) (domain or fragment, UniProt O60333-2 1-366)
chain: MSGASVKVAVRVRPFNSRETSKESKCIIQMQGNSTSIINPKNPKEAPKSFSFDYSYWSHTSPEDPCFASQNRVYNDIGKEMLLHAFEGYNVCIFAYGQTGAGKSYTMMGKQEESQAGIIPQLCEELFEKINDNCNEEMSYSVEVSYMEIYCERVRDLLNPKNKGNLRVREHPLLGPYVEDLSKLAVTSYTDIADLMDAGNKARTVAATNMNETSSRSHAVFTIVFTQKKHDNETNLSTEKVSKISLVDLAGSERADSTGAKGTRLKEGANINKSLTTLGKVISALAEVSKKKKKTDFIPYRDSVLTWLLRENLGGNSRTAMVAALSPADINYDETLSTLRYADRAKQIKCNAVINEDPNAKLVREL

What was measured:
[1] = target: T1, DLC2 (Deleted in Liver Cancer 2; STARD13) (human (endogenous in HCE)); assay: co-IP; HCE cell extracts (0.5% Triton-X-100 in PBS, 4 °C, protease and phosphatase inhibitors); goat anti-DLC2 or rabbit anti-Kif1B antibodies conjugated to Protein G-Sepharose, control IgG of the same species; 2 h at 4 °C; immunoblot
[2] = target: T2, DLC2 SAM domain together with the serine-rich domain (residues 1-600) fused to GST (human); assay: pull-down; GST-fusion proteins of DLC2 domains on glutathione-agarose beads incubated 2 h with HCE cell extracts; immunoblot for Kif1B, p120 catenin and GST; only the target purified
[3] = target: T3, DLC2 SAM domain (residues 1-130) fused to GST (human); assay: as above
[4] = target: Kif1B (human (endogenous in HCE)) (UniProt O60333); assay: co-IP; HCE cell extracts (0.5% Triton-X-100 in PBS, 4 °C, protease and phosphatase inhibitors); goat anti-DLC2 or rabbit anti-Kif1B antibodies conjugated to Protein G-Sepharose, control IgG of the same species; 2 h at 4 °C; immunoblot
[5] = target: T3, DLC2 SAM domain (residues 1-130) fused to GST (human); assay: pull-down; purified GST-SAM domain on glutathione-agarose beads incubated 2 h with recombinant His-tagged Kif1B fusion proteins; immunoblot with anti-GST and anti-His; both purified

Molecule	binding [1]	binding [2]	binding [3]	binding [4]	binding [5]
Kif1B (from UniProt O60333 1-1816)	binds	binds	binds		
B1	binds	binds	binds	binds	
B2				binds	
B3					no binding
